The target of assay [1] is T1, GFP-tagged LKB1 WT (1–433) (human) (UniProt Q15831).
T1 sequence: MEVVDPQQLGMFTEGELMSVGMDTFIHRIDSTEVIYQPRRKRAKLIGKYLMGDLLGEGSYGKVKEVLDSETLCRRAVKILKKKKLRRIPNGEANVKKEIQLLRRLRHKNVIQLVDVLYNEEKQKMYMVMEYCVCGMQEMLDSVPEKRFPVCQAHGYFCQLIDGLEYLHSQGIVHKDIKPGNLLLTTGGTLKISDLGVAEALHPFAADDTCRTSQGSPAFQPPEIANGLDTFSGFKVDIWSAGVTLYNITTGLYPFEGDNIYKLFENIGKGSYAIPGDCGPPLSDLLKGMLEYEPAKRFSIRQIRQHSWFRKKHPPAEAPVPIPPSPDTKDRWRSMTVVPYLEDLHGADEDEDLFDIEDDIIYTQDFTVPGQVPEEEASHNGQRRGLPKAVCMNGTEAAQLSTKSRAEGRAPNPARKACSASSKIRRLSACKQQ
In words: co-IP; transfected HEK293T; lysate in NETN buffer, GFP beads 2 h at 4 °C, immunoblot.

The chains behind the UniProt entries cited, without tags or fusion partners. Where a name states a change or a piece, a line headed by the entry shows the natural chain unless it says otherwise. A line that says so, or that is headed by a name, gives the form on record, which may keep a tag or linker. Residues count along the entry.
UniProt Q9NUY8: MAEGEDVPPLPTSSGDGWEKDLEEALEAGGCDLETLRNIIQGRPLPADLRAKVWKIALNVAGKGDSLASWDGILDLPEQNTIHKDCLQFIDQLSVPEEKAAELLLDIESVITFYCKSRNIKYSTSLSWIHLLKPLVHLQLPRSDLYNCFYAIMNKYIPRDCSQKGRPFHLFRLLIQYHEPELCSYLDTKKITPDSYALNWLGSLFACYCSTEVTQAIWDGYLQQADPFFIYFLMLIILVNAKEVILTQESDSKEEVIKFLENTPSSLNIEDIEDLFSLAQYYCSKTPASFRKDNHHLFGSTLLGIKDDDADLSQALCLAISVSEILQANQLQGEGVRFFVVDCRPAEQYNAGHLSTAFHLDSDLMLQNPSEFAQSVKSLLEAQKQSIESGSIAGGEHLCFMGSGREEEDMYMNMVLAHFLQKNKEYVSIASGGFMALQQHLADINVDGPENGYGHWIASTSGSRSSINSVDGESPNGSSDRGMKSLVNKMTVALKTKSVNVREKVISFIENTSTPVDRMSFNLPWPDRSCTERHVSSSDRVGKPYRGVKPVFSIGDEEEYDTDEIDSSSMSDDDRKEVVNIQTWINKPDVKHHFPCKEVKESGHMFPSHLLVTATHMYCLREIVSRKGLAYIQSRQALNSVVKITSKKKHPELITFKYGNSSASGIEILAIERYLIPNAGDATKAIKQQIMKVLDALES
GST-TBC1D23 PH (PH domain, residues 545–684), expressed in HEK293T: residues 560-699 of Q9NUY8
mCherry-TBC1D23 WT (Q9NUY8-2, form named): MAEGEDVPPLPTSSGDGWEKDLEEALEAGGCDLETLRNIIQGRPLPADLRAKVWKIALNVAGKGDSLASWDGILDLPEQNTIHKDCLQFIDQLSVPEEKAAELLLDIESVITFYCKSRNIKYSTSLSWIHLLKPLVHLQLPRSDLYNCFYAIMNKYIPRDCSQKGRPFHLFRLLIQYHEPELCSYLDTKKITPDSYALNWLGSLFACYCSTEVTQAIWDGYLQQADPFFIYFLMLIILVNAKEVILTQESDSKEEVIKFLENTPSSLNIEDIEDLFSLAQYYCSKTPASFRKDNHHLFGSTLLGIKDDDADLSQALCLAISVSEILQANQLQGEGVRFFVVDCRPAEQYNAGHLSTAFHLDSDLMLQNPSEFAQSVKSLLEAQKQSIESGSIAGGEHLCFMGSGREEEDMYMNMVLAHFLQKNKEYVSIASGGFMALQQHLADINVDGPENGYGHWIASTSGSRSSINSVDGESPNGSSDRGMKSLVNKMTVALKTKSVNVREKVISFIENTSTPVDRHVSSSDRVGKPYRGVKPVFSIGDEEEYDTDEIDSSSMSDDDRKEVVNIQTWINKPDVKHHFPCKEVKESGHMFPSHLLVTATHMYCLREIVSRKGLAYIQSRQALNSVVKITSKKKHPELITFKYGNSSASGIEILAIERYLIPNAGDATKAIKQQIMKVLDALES

Assay [2] has as its target T2, GFP-tagged LKB1 F354L (1–433) (human) (UniProt Q15831).
T2 sequence: T1 sequence with F354L
Described as above.

Assay [3] concerns the target T3, GFP-tagged LKB1 F354A (1–433) (human) (UniProt Q15831).
T3 sequence: T1 sequence with F354A
The assay is described as above.

For assay [4], the target named is T4, Flag-LKB1 (full-length LKB1) (human) (UniProt Q15831).
T4 sequence: T1 sequence
In words: co-IP; co-transfected HEK293T; lysate in NETN buffer, anti-Flag Affinity Gel overnight at 4 °C, immunoblot.

Experimental findings from article PMC10899256 are described below.

Changes are numbered by the printed parent chain. Results are given in words; binding and its absence hold for the method and conditions named. Binding seen in cells or lysates may run through a third protein. Some binding calls cover weakened binding; strength is not graded here. Tags and fused reporters may be left off the sequences shown.

In the case of “TBC1D23 co-precipitated with GFP-tagged LKB1 (Fig. 8a) (from UniProt Q9NUY8 1-699)”, the binding result in assay [1], in assay [2] and in assay [3] was “binds” each time.

As to “GST-TBC1D23 PH (PH domain, residues 545–684), expressed in HEK293T (from UniProt Q9NUY8-2 545-684) (domain or fragment)”, in assay [4], the binding entry is listed as “binds”.

With “mCherry-TBC1D23 WT (from UniProt Q9NUY8-2 1-684)”, the binding entry in assay [4] is “binds”.
